Measured values: the supplement of paper PMC10849652
Some of the results follow.

Protein sequences, listed by entry. Tags and fused reporters are not part of them. Lines headed by an entry give the natural chain unless they say otherwise; changes in a name come on top.
UniProt P51991: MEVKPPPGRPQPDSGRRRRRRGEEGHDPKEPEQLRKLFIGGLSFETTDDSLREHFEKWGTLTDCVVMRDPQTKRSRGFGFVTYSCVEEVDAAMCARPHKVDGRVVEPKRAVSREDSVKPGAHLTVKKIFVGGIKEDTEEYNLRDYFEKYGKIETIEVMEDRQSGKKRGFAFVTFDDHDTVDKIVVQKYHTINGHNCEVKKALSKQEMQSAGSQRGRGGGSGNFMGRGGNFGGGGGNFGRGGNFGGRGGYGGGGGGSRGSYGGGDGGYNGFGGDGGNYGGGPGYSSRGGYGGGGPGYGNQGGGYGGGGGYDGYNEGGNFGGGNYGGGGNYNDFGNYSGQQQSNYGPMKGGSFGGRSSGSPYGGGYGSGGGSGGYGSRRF
UniProt P17482: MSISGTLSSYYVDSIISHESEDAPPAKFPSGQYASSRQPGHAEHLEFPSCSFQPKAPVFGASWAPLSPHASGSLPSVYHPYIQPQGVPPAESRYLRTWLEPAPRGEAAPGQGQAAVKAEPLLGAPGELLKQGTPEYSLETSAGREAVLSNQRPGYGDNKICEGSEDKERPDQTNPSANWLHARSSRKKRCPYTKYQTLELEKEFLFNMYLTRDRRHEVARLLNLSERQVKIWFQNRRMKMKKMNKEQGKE
UniProt P50747: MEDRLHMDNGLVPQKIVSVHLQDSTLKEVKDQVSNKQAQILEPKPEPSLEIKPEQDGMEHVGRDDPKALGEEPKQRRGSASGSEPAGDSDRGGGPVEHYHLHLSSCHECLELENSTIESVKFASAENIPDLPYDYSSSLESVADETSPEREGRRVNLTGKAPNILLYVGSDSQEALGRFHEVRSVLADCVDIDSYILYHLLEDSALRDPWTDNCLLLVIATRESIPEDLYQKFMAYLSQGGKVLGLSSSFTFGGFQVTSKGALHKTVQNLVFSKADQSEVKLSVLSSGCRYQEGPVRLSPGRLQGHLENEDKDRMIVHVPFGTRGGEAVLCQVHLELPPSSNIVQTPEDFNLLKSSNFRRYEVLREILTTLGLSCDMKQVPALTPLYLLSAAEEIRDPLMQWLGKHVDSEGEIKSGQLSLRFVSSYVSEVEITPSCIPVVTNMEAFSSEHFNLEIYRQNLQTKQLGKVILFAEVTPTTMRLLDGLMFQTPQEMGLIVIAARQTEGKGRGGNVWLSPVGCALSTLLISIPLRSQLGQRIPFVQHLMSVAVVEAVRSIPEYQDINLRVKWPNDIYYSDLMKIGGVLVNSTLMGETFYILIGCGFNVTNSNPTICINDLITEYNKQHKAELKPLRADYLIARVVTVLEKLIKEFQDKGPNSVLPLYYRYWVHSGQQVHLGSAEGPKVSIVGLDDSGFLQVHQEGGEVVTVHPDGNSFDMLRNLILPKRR
UniProt Q00839, whole entry, looked up: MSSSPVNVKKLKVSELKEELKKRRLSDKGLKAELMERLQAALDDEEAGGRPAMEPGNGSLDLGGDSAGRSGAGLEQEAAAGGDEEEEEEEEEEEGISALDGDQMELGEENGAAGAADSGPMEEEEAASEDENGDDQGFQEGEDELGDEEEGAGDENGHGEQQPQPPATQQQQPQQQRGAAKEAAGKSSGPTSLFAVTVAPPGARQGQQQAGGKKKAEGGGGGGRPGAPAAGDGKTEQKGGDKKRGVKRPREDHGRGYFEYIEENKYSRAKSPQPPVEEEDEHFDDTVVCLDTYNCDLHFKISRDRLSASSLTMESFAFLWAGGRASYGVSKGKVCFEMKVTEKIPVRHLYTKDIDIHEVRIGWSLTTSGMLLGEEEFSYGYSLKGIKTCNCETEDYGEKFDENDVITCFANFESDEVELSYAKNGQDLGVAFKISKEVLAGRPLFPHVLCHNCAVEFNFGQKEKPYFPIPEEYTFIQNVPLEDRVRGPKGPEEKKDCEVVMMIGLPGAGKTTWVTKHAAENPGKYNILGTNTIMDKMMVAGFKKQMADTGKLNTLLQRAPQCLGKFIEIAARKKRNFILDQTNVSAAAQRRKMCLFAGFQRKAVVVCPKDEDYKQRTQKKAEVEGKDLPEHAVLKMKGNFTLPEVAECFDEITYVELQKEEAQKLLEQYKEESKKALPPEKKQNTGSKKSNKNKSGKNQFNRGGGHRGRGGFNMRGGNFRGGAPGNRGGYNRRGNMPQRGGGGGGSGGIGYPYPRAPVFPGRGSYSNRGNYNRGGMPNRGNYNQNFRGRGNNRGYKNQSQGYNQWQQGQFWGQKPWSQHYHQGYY
UniProt P14625, whole entry, looked up: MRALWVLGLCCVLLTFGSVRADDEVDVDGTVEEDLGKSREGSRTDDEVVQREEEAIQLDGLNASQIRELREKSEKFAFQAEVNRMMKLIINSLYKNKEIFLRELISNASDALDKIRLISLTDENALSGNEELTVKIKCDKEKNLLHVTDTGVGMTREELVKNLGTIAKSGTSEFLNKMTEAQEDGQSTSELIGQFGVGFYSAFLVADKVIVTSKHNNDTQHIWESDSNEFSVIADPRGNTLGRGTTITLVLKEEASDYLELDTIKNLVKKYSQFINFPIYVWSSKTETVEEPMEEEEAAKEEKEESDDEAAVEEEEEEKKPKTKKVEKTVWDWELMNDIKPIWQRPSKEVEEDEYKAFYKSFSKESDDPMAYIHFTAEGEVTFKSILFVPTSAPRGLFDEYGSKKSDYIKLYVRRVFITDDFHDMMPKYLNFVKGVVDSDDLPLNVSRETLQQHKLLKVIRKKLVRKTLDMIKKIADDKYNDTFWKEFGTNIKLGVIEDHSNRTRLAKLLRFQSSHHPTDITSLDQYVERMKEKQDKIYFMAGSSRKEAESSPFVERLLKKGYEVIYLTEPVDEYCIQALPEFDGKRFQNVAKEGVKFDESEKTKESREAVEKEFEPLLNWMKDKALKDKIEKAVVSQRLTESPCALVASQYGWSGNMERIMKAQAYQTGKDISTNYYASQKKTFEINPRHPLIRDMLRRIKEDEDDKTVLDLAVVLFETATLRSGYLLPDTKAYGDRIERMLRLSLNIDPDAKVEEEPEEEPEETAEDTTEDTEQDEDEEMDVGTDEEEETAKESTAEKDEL
UniProt Q9NRV9: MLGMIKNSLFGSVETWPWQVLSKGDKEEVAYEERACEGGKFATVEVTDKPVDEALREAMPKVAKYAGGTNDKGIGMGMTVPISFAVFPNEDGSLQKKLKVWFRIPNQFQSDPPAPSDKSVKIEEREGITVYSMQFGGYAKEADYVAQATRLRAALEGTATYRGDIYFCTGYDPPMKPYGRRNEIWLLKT
UniProt Q14103: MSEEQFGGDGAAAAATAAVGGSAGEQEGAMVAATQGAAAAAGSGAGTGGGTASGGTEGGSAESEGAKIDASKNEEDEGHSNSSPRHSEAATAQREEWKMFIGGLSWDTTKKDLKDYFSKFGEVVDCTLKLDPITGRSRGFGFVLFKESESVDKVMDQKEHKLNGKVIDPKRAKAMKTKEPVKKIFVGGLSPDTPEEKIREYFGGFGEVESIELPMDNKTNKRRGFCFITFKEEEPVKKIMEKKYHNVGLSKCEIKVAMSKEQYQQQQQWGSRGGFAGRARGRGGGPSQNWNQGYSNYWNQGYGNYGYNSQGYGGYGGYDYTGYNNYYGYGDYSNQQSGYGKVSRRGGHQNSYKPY
UniProt O75330: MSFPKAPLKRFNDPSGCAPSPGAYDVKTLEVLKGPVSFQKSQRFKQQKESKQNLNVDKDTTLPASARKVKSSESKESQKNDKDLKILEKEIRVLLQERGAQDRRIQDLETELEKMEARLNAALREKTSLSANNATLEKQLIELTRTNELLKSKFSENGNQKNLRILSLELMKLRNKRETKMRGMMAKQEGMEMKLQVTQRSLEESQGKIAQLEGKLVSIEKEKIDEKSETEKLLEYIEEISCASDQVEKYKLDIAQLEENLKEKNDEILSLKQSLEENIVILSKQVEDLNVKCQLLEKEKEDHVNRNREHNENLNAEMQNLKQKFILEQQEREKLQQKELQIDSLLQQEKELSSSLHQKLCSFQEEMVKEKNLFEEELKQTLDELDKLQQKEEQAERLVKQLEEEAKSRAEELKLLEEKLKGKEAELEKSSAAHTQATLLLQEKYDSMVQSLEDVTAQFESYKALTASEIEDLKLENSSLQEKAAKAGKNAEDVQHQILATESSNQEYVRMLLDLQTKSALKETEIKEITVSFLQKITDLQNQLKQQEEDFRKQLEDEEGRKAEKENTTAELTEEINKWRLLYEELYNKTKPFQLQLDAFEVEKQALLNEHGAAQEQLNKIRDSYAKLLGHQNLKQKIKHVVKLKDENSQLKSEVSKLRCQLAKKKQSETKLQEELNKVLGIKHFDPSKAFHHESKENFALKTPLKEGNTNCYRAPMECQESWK
UniProt Q6DN03, whole entry, looked up: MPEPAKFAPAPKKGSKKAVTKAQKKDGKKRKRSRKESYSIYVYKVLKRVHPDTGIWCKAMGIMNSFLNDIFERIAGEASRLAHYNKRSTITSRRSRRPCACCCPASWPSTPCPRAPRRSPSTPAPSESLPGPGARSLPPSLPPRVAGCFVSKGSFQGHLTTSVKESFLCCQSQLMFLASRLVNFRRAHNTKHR
UniProt Q8IX15: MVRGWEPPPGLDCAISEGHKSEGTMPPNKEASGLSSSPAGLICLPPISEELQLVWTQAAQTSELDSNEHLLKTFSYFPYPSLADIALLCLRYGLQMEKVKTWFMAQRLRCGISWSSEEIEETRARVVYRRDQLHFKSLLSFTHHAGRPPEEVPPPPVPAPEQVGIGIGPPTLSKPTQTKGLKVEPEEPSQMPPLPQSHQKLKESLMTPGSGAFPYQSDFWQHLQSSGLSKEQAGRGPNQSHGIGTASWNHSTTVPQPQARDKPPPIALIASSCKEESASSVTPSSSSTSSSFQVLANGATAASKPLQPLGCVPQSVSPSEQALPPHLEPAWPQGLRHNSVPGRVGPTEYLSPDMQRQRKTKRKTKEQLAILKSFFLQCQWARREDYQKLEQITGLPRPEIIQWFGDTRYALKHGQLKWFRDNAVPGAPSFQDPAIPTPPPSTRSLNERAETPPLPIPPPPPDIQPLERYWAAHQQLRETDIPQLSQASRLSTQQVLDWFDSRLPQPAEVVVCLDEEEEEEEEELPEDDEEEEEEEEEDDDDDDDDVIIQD
UniProt P52597: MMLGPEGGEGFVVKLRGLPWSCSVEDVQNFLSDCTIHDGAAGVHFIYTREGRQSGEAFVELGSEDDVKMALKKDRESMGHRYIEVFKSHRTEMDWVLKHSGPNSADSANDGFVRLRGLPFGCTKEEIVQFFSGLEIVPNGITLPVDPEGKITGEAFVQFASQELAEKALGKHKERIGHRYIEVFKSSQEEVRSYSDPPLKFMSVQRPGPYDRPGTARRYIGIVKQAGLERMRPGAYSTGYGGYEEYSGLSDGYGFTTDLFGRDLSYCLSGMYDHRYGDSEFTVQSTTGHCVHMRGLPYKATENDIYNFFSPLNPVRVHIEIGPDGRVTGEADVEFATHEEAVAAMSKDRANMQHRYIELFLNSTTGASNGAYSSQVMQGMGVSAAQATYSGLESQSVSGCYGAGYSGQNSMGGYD
UniProt Q9BTY7: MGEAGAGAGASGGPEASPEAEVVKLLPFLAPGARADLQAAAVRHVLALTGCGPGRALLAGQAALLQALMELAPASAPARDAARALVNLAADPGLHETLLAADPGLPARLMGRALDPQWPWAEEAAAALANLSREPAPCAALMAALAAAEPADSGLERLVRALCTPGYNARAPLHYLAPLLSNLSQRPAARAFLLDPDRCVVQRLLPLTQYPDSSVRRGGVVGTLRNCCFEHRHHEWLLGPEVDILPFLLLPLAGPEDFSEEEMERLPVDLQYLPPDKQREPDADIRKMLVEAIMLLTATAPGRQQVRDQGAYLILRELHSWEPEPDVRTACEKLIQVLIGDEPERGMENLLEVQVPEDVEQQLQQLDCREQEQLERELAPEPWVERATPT
UniProt P52272: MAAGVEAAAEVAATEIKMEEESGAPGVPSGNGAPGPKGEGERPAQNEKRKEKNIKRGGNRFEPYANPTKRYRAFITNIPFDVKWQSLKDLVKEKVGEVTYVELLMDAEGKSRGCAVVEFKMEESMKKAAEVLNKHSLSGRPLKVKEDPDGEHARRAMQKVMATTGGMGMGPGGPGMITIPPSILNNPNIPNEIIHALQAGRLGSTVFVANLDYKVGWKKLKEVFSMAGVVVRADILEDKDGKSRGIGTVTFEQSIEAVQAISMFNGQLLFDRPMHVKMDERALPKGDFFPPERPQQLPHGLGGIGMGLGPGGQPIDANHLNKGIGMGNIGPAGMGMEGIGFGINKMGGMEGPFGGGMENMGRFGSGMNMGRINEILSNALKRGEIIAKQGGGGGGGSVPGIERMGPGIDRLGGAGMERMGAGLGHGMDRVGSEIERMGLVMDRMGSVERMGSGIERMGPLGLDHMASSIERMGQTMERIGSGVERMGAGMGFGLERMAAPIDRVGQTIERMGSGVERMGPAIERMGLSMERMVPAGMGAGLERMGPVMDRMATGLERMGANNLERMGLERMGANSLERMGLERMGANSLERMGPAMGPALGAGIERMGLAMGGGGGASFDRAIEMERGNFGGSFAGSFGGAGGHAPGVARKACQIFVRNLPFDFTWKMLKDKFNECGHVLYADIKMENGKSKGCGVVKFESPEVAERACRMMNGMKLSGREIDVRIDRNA

Legend:
Assay in all cases: log2 fold change, soluble protein after heating vs DMSO (PISA); higher = thermal stabilisation; K562 lysate, 10 uM; active = over 0.2 and 3.5 SD of the protein, either way, in both replicates (recomputed)
[1] = compound: CN1CC[C@H](c2c(O)cc(O)c3c(=O)cc(-c4ccccc4Cl)oc23)[C@H](O)C1 [alvocidib]
Procedure, shortened: (§1)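 Pellets of K562 cells were dounce-homogenised in PBS pH 7.4 with 1 mM MgCl2, and the crude extract was held at 1 mg/mL protein for a 30 min treatment with 10 μM compound. Aliquots were heated for 3 min over 48°C-58°C and pooled before NP-40 was added to 0.5% at 4°C. The supernatant from 21,000xg for 90 min was quantified by TMTpro 16plex LC-MS/MS with channel sums equalised. Values are reported from duplicates as log-two fold change in thermal stability relative to solvent controls.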

[2] = compound: CN1CCc2c(c3ccccc3n2Cc2ccc(C(=O)NO)cc2)C1 [Tubastatin A]
Procedure, shortened: as §1

[3] = compound: CNC(=O)C1=CC=CC=C1NC2=NC(=NC=C2Cl)NC3=C(C=C(C=C3)N4CCOCC4)OC
Procedure, shortened: as §1

[4] = compound: CNC(=O)c1ccc(Nc2ncc(C(F)(F)F)c(NCc3nccnc3N(C)S(C)(=O)=O)n2)cc1 [defactinib]
Procedure, shortened: as §1

[5] = compound: CNc1nc(-c2ccc3c(N)n[nH]c3c2)cc(N2C[C@@H](C(=O)NC3CCCCC3)CC[C@H]2C)n1
Procedure, shortened: as §1

[6] = compound: COC(=O)N[C@@H](C)CNc1nccc(-c2cn(C(C)C)nc2-c2cc(Cl)cc(NS(C)(=O)=O)c2F)n1 [encorafenib]
Procedure, shortened: as §1

[7] = compound: COC(=O)[C@H](CCSC)NC(=O)C1=C(C=C(C=C1)NC[C@H](CS)N)C2=CC=CC=C2
Procedure, shortened: as §1

[8] = compound: COc1cc(Nc2ncc3c(n2)-c2ccc(Cl)cc2C(c2c(F)cccc2OC)=NC3)ccc1C(=O)O [alisertib]
Procedure, shortened: as §1

[9] = compound: COc1cc2nc(-c3cc(F)ccc3O)nc(N[C@@H]3CNC[C@H]3C(C)(C)O)c2cc1OC
Procedure, shortened: as §1

[10] = compound: COc1cc2ncnc(Nc3ccc(F)c(Cl)c3)c2cc1OCCCN1CCOCC1 [gefitinib]
Procedure, shortened: as §1

Target | log2 fold change [1] | log2 fold change [2] | log2 fold change [3] | log2 fold change [4] | log2 fold change [5] | log2 fold change [6] | log2 fold change [7] | log2 fold change [8] | log2 fold change [9] | log2 fold change [10]
HNRNPA3 (UniProt P51991) | inactive: 0.065 | inactive: -0.11 | inactive: -0.019 | inactive: -0.006 | inactive: -0.051 | inactive: 0.006 | inactive: -0.041 | inactive: 0.006 | inactive: -0.024 | inactive: -0.017
HOXB9 (UniProt P17482) | inactive: 0.019 | inactive: -0.217 | inactive: 0.086 | inactive: 0.072 | inactive: 0.021 | inactive: 0.075 | inactive: 0.012 | inactive: -0.041 | inactive: -0.006 | inactive: 0.086
HPCAL1 (UniProt P37235) | inactive: -0.06 | inactive: 0.016 | inactive: 0.008 | inactive: 0.079 | inactive: -0.118 | inactive: 0.013 | inactive: -0.193 | inactive: -0.006 | inactive: 0.012 | inactive: 0.018
HIST2H2AA3 (UniProt Q6FI13) | inactive: 0.202 | inactive: 0.092 | inactive: -0.002 | inactive: -0.032 | inactive: 0.277 | inactive: -0.027 | inactive: 0.086 | inactive: -0.097 | inactive: -0.027 | inactive: -0.086
HSPA2 (UniProt P54652) | inactive: -0.139 | inactive: 0.004 | inactive: -0.015 | inactive: -0.01 | inactive: 0.036 | inactive: -0.017 | inactive: 0.045 | inactive: -0.06 | inactive: 0.019 | inactive: 0.092
HLCS (UniProt P50747) | inactive: -0.015 | inactive: 0.036 | inactive: 0.018 | inactive: 0.017 | inactive: 0.025 | inactive: 0.003 | inactive: 0.053 | inactive: -0.01 | inactive: 0.038 | inactive: 0.013
HSP90AA1 isoform 2 (UniProt P07900) | inactive: 0.019 | inactive: 0.047 | inactive: -0.012 | inactive: -0.002 | inactive: 0.005 | inactive: -0.032 | inactive: 0.024 | inactive: 0.01 | inactive: 0.002 | inactive: -0.015
HK2 (UniProt P52789) | inactive: 0.006 | inactive: -0.17 | inactive: 0.024 | inactive: 0.017 | inactive: -0.006 | inactive: 0 | inactive: 0.165 | inactive: 0.023 | inactive: -0.031 | inactive: -0.016
HIP1 (UniProt O00291) | inactive: -0.006 | inactive: -0.006 | inactive: 0.006 | inactive: -0.03 | inactive: 0.019 | inactive: 0.018 | inactive: 0.015 | inactive: -0.041 | inactive: 0.002 | inactive: -0.008
HSD17B7 (UniProt P56937) | inactive: 0.032 | inactive: -0.018 | inactive: 0.064 | inactive: 0.028 | inactive: -0.022 | inactive: 0.158 | inactive: 0.068 | inactive: -0.012 | inactive: -0.037 | inactive: 0.033
HMGB3 (UniProt O15347) | inactive: 0.036 | inactive: 0 | inactive: 0.006 | inactive: -0.017 | inactive: 0.079 | inactive: -0.011 | inactive: -0.074 | inactive: -0.047 | inactive: -0.046 | inactive: -0.021
HHEX (UniProt Q03014) | inactive: -0.035 | inactive: -0.052 | inactive: 0.026 | inactive: 0.069 | inactive: -0.029 | inactive: -0.056 | inactive: 0.309 | inactive: 0.069 | inactive: 0.175 | inactive: 0.026
HERC2 (UniProt O95714) | inactive: -0.075 | active: -0.316 | inactive: -0.109 | inactive: -0.085 | inactive: -0.077 | inactive: 0.027 | inactive: 0.111 | inactive: -0.007 | inactive: 0.005 | inactive: 0.004
HNRNPU (UniProt Q00839) | inactive: 0.028 | inactive: -0.093 | inactive: -0.006 | inactive: 0.011 | inactive: 0.004 | inactive: 0.023 | inactive: 0.012 | inactive: -0.008 | inactive: -0.011 | inactive: -0.003
HOMER1 (UniProt Q86YM7) | inactive: 0.031 | inactive: 0.027 | inactive: 0.026 | inactive: -0.019 | inactive: 0.046 | inactive: 0.03 | inactive: 0.01 | inactive: 0.009 | inactive: -0.02 | inactive: -0.035
HSP90B1 (UniProt P14625) | inactive: 0.02 | inactive: 0.052 | inactive: -0.009 | inactive: -0.016 | inactive: 0.011 | inactive: -0.01 | inactive: -0.016 | inactive: 0.007 | inactive: 0.008 | inactive: -0.002
HMBOX1 isoform 5 (UniProt Q6NT76) | inactive: -0.078 | inactive: -0.003 | inactive: -0.005 | inactive: 0.012 | inactive: 0.066 | inactive: -0.037 | inactive: -0.016 | inactive: -0.156 | inactive: 0.02 | inactive: -0.091
HGS (UniProt O14964) | inactive: 0.001 | inactive: 0.035 | inactive: 0 | inactive: -0.018 | inactive: 0.005 | inactive: 0.012 | inactive: -0.009 | inactive: -0.015 | inactive: 0.006 | inactive: 0.017
HEBP1 (UniProt Q9NRV9) | inactive: -0.038 | inactive: 0.027 | inactive: 0.141 | inactive: 0.01 | inactive: 0.007 | inactive: -0.011 | inactive: -0.067 | inactive: 0.034 | inactive: 0.036 | inactive: 0.085
HNRNPH2 (UniProt P55795) | inactive: -0.003 | inactive: -0.209 | inactive: 0.02 | inactive: 0.019 | inactive: -0.043 | inactive: 0.037 | inactive: -0.032 | inactive: -0.004 | inactive: -0.007 | inactive: -0.047
HNRNPD isoform 3 (UniProt Q14103) | inactive: 0.017 | inactive: 0.008 | inactive: 0.004 | inactive: 0.117 | inactive: 0.146 | inactive: 0.036 | inactive: 0.016 | inactive: 0.024 | inactive: 0.001 | inactive: 0.113
HMMR isoform 3 (UniProt O75330) | inactive: -0.005 | inactive: -0.014 | inactive: 0.015 | inactive: 0.022 | inactive: 0.007 | inactive: 0.009 | inactive: -0.004 | inactive: 0.001 | inactive: -0.009 | inactive: 0.007
HIST2H2BC (UniProt Q6DN03) | inactive: 0.024 | inactive: 0.004 | inactive: 0.019 | inactive: -0.148 | inactive: -0.003 | inactive: 0.092 | inactive: 0.143 | inactive: 0.005 | inactive: 0.008 | inactive: -0.12
HOMEZ isoform 3 (UniProt Q8IX15) | inactive: 0.05 | inactive: -0.007 | inactive: 0.011 | inactive: 0.014 | inactive: -0.016 | inactive: -0.026 | inactive: -0.017 | inactive: -0.03 | inactive: 0.109 | inactive: -0.015
HNRNPF (UniProt P52597) | inactive: -0.016 | inactive: -0.156 | inactive: 0.01 | inactive: -0.013 | inactive: -0.056 | inactive: 0.035 | inactive: -0.034 | inactive: 0.023 | inactive: -0.009 | inactive: -0.021
HGH1 (UniProt Q9BTY7) | inactive: 0.019 | inactive: -0.111 | inactive: 0.014 | inactive: 0.022 | inactive: -0.041 | inactive: 0.004 | inactive: 0.06 | inactive: 0.01 | inactive: -0.053 | inactive: -0.036
HNRNPM (UniProt P52272) | inactive: -0.01 | inactive: -0.096 | inactive: 0.022 | inactive: 0.045 | inactive: -0.067 | inactive: 0.166 | inactive: -0.035 | inactive: 0.069 | inactive: 0.037 | inactive: 0.012
